Laboratory results reported in patent US4668769 (dated 1987).

Assay: general procedure: solution-phase peptide synthesis; dicyclohexylcarbodiimide / 1-hydroxybenzotriazole hydrate

Substance	step yield (coupling step)	step yield (purification step, recovery of crude material injected)
BocPheHis(imBoc)-2-N-isobutylazahomocyclohexyl-StaLys(e-CBZ)Phe benzyl ester	44%	
BocPhe-N-methylHis-2-N-i-butylazahomocyclohexylStaLysPheNH2		Approximately 30%
BocPheHis(imBoc)-O-benzyl-2-oxahomocyclohexylStaLys(e-CBZ)Phe benzyl ester	69%	
BocPhe(N-imBoc)His-2-N-i-propylazahomocyclohexylStaLys(e-CBZ)Phe benzyl ester	51%	
